Assay results from US20230047729 (published 2023).

Assay: general procedure: hybrid (solid and solution phase) peptide synthesis; 2-chlorotrityl chloride resin (1.46 mmol/g); DIC/OxymaPure (SPPS); PyBOP/DIEA (fragment coupling in solution)
Settings: whole synthesis

For liraglutide, the “crude HPLC purity” value (run 1) was 64.5%, the “crude HPLC purity” value (run 2) was 65.5% and the “crude HPLC purity” value (run 3) was 67.5%.
